By UniProt entry, the sequences of proteins in these tests, tags left out. Residues count along the entry.
UniProt P35637, 454-526: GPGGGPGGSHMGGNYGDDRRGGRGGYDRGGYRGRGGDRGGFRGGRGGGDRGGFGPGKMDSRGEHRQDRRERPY

In paper PMC8870583, “EGCG Promotes FUS Condensate Formation in a Methylation-Dependent Manner” (Cells, 2022):

Target: meFUS RGG3PY (PRMT1-methylated) (UniProt P35637)
Assay: NMR 1H-15N HSQC titration
Conditions: 30 uM protein, 0-7.5 uM RNA, arginine-methylated, CSPs higher, binding stated stronger than unmethylated; 50 mM sodium succinate pH 6.0, 150 mM NaCl, 2 mM TCEP, 0.04% NaN3, 10% D2O, 25 C; recombinant protein; residues 454-526; protein details: His6-protein A tag removed by TEV

Sequence: UGUGUGUGUGUGUGUGUGUGUGUG [(UG)12 RNA]
- binding result: binds

Construct, isoform or probe ends are uncertain for at least one entry.
